Measured values from the supplement of paper PMC4256282, “Profound Activity of the Anti-cancer Drug Bortezomib against Echinococcus multilocularis Metacestodes Identifies the Proteasome as a Novel Drug Target for Cestodes” (PLoS Neglected Tropical Diseases, 2014).
Structures can show the parent of a compound that is named as a salt. The list shows a part of the results. Many values rest on one well or one pass, so single values are uncertain.

Each compound was assayed on Echinococcus multilocularis metacestodes (assay: vesicle damage (PGI release) relative to positive control DB1127 at 20 µM, DMSO subtracted; higher = more parasite damage). Details: treatment time 5 days.

| Compound | vesicle damage |
| --- | --- |
| CC1(C)S[C@@H]2[C@H](NC(=O)[C@H](N)c3ccc(O)cc3)C(=O)N2[C@H]1C(=O)O [Amoxicillin] | 2.73% |
| CCCCC1=NC2(CCCC2)C(=O)N1Cc1ccc(-c2ccccc2-c2nnn[nH]2)cc1 [Irbesartan] | 8.13% |
| CN1C(C(=O)Nc2ccccn2)=C(O)c2ccccc2S1(=O)=O [Piroxicam] | -12.7% |
| CCOC(=O)C1=C(C)NC(C)=C(C(=O)OC)C1c1cccc(Cl)c1Cl (configuration not stated) [Felodipine] | 7.6% |
| CCC[C@H](N[C@@H](C)C(=O)N1[C@H](C(=O)O)C[C@@H]2CCCC[C@@H]21)C(=O)OCC [Perindopril Erbumine] | -2.32% |
| Cc1ccc(O)c([C@H](CCN(C(C)C)C(C)C)c2ccccc2)c1 [Tolterodine tartrate] | 0.121% |
| O=C1CCc2cc(OCCCCc3nnnn3C3CCCCC3)ccc2N1 [Cilostazol] | -0.703% |
| Cc1nnc(C(=O)NC(C)(C)c2nc(C(=O)NCc3ccc(F)cc3)c(O)c(=O)n2C)o1 [Raltegravir] | 0.0693% |
| CC(=O)O[C@H]1C(=O)[C@@]2(C)[C@H]([C@H](OC(=O)c3ccccc3)[C@]3(O)C[C@H](OC(=O)[C@H](O)[C@@H](NC(=O)c4ccccc4)c4ccccc4)C(C)=C1C3(C)C)[C@]1(OC(C)=O)CO[C@@H]1C[C@@H]2O [Paclitaxel] | 1.2% |
| C[C@]12CC[C@H](O)CC1=CC[C@@H]1[C@@H]2CC[C@]2(C)C(c3cccnc3)=CC[C@@H]12 [Abiraterone] | -5.27% |
| Cn1c(=O)c2[nH]cnc2n(C)c1=O [Aminophylline] | -2.47% |
| CO[C@H]1C[C@@H]2CC[C@@H](C)[C@@](O)(O2)C(=O)C(=O)N2CCCC[C@H]2C(=O)O[C@H]([C@H](C)C[C@@H]2CC[C@@H](OC(=O)C(C)(CO)CO)[C@H](OC)C2)CC(=O)[C@H](C)/C=C(\C)[C@@H](O)[C@@H](OC)C(=O)[C@H](C)C[C@H](C)/C=C/C=C/C=C/1C [Temsirolimus] | -2.21% |
| Cc1cc2c(s1)Nc1ccccc1N=C2N1CCN(C)CC1 [Olanzapine] | -0.121% |
| CN(C)C(=O)C(CCN1CCC(O)(c2ccc(Cl)cc2)CC1)(c1ccccc1)c1ccccc1 [Loperamide hydrochloride] | 1.33% |
| Nc1nc(=O)[nH]cc1F [Flucytosine] | -3.21% |
| CN(C)c1ccc(C(=C2C=CC(=[N+](C)C)C=C2)c2ccc(N(C)C)cc2)cc1 [Crystal violet] | 128% |

Two neighbouring compounds out of the list so far:

| Compound | vesicle damage |
| --- | --- |
| CCOC(=O)C1=C(C)NC(C)=C(C(=O)OC)C1c1cccc(Cl)c1Cl (configuration not stated) [Felodipine] | 7.6% |
| CCC[C@H](N[C@@H](C)C(=O)N1[C@H](C(=O)O)C[C@@H]2CCCC[C@@H]21)C(=O)OCC [Perindopril Erbumine] | -2.32% |

(listing goes on)

| Compound | vesicle damage |
| --- | --- |
| CCc1nc(N)nc(N)c1-c1ccc(Cl)cc1 [Pyrimethamine] | 0.646% |
| CCOC(=O)c1ccc(C#Cc2ccc3c(c2)C(C)(C)CCS3)nc1 [Tazarotene] | -1.13% |
| NCCc1ccc(O)c(O)c1 [Dopamine hydrochloride] | 0.815% |
| CC[C@]1(O)C[C@H]2CN(CCc3c([nH]c4ccccc34)[C@@](C(=O)OC)(c3cc4c(cc3OC)N(C=O)[C@H]3[C@@](O)(C(=O)OC)[C@H](OC(C)=O)[C@]5(CC)C=CCN6CC[C@]43[C@@H]65)C2)C1 [Vincristine Sulfate] | 1.82% |
| COc1c2occc2cc2ccc(=O)oc12 [Methoxsalen] | -7.39% |
| Cc1cccc(Nc2ccncc2S(=O)(=O)NC(=O)NC(C)C)c1 [Torsemide] | -2.92% |
| O=C(NCCO[N+](=O)[O-])c1cccnc1 [Nicorandil] | -12.3% |
| CCC[C@@H]1C[C@@H](C(=O)N[C@@H]([C@H]2O[C@H](SC)[C@H](O)[C@@H](O)[C@H]2O)[C@@H](C)O)N(C)C1 [Lincomycin hydrochloride] | 2.74% |
| NC(=O)NO [Hydroxyurea] | -11.3% |
| NC(CO)C(=O)NNCc1ccc(O)c(O)c1O (configuration not stated) [Benserazide hydrochloride] | 4.48% |
| CC(C)NCC(O)c1ccc(O)c(O)c1 (configuration not stated) [Isoprenaline hydrochloride] | -0.181% |
| COc1c(N2CCNC(C)C2)c(F)cc2c(=O)c(C(=O)O)cn(C3CC3)c12 (configuration not stated) [Gatifloxacin] | -2.21% |
| Cn1ccnc1S [Methimazole] | -2.73% |
| CC(=O)SCC(Cc1ccccc1)C(=O)NCC(=O)OCc1ccccc1 (configuration not stated) [Racecadotril] | -0.491% |
| Cc1cc(C(C)(C)C)c(O)c(C)c1CC1=NCCN1 [Oxymetazoline hcl] | -1.14% |
| CCCCNc1cc(C(=O)O)cc(S(N)(=O)=O)c1Oc1ccccc1 [Bumetanide] | 6.18% |
